Data on 31 sequences can be found in patent US6001988.

By UniProt entry, the sequences of proteins in these tests, tags left out. Residues count along the entry.
UniProt P20273, 20-687: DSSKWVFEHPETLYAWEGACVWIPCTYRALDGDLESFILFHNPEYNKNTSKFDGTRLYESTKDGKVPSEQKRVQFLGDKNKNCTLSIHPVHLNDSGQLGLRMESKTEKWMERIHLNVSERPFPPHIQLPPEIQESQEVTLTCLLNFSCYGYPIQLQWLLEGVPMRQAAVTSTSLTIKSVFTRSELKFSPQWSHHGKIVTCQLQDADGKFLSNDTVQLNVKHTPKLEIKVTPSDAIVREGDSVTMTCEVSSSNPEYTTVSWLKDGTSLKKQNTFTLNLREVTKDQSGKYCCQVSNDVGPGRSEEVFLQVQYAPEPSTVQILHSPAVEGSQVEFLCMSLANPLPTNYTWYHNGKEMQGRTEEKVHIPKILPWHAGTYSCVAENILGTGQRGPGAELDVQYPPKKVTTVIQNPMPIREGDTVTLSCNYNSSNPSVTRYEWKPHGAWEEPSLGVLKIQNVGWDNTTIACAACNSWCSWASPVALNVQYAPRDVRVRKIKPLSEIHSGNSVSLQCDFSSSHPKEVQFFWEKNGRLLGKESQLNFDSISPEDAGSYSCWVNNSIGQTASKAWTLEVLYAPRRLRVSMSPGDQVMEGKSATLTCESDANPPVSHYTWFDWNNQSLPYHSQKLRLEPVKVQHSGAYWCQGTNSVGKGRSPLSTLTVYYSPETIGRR

For part of these data: Protein sequences can lack the tags named with them. For part of these data: For at least one entry, the source does not settle the construct or the ends of the probe.

What all share (test): filter binding
The target in data set [1] is T1, wheat germ agglutinin (WGA) (Triticum vulgare) (UniProt P10968).
T1 sequence (looked up, limits assumed): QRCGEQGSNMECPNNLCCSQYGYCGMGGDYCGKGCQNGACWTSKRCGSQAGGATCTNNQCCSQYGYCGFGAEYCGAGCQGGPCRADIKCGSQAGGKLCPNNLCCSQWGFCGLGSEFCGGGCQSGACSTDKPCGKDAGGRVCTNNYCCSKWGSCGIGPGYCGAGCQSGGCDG
The conditions noted are these: purified native protein.

The target of a further data set is CD22beta (CD22beta-Rg) (UniProt P20273). The conditions noted are these: purified recombinant protein, protein details: fused to human IgG1 Fc (provided by A. Varki).
Data set [2] deals with T2, E-selectin (ES-Rg) (Homo sapiens) (UniProt P16581).
T2 sequence: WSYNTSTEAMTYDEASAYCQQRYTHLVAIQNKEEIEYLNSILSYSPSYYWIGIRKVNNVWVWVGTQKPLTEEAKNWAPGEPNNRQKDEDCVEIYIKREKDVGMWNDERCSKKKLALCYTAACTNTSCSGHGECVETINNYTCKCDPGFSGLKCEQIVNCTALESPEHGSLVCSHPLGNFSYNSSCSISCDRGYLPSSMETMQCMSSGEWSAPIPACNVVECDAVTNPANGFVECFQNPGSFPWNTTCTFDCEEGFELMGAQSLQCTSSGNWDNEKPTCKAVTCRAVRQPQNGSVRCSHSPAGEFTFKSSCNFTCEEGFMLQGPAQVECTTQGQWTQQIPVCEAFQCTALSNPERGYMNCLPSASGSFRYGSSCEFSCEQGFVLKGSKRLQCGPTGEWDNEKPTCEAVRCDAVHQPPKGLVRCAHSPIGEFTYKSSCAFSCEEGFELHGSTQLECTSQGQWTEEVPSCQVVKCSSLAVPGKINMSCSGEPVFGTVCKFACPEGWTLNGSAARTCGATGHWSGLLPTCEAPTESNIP
The settings on record: 2'-NH2 all C and U; <5% bound, 4 C; purified recombinant protein; protein details: human IgG1 Fc fusion (provided by A. Varki); label: 32P.

The target of data set [3] is T3, L-selectin (LS-Rg) (Homo sapiens) (UniProt P14151).
T3 sequence: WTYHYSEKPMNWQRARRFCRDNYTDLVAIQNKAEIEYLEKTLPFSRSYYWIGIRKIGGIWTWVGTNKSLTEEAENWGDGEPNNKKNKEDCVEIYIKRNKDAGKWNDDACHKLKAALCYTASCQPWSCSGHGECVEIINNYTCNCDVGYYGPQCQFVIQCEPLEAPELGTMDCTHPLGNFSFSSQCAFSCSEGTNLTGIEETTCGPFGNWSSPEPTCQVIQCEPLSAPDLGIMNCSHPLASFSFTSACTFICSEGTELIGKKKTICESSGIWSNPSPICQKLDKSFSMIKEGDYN
The settings on record: purified recombinant protein, protein details: human IgG2 Fc fusion (provided by A. Varki), label: 32P.

Data set [4] addresses T4, Ulex europaeus lectin UEA-II (Ulex europaeus) (UniProt P22973).
T4 sequence (looked up, limits assumed): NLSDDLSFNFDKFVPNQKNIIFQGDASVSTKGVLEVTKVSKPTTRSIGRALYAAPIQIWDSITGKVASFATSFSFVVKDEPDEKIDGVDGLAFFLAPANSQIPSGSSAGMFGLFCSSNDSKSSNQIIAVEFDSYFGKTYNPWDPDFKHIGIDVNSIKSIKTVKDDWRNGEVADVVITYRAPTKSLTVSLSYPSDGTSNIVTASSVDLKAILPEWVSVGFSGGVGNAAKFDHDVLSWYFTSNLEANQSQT
The settings on record: 2'-NH2 all C and U; <5% bound at 1 uM protein; purified native protein; protein details: E Y Laboratories; label: 32P.

[5] abbreviates: <3% binding at 1.4 µM, room temp, protein details: E Y Laboratories, single-stranded DNA.
Setting [6] is: <1% binding at 700 nM, room temp, single-stranded DNA.
Where [7] appears, read: 2'-NH2 all C and U, <5% bound at 1 uM WGA, protein details: free lectin, E Y Laboratories, label: 32P.
Where [8] appears, read: 2'-NH2 on all C and U, <5% binding at highest protein, 4 C, HSMC.

In general, Kd refers to a measure of binding affinity in units of concentration. Take “CTACCTACGATCTGACTAGCCGGACATGAGCGTTACAAGGTGCTAAACGTAACGTACTTGCTTACTCTCATGTAGTTCC [227]”: the Kd (in data set [1] (setting [5]); with CD22beta (CD22beta-Rg) (setting [6])) was greater than 100 µM in each case.

Consider “CTACCTACGATCTGACTAGCTGGCGGTACGGGCCGTGCACCCACTTACCTGGGAAGTGAGCTTACTCTCATGTAGTTCC [196]”, for which the Kd (in data set [1] (setting [5]); with CD22beta (CD22beta-Rg) (setting [6])) was greater than 100 µM each time.

Consider “CTACCTACGATCTGACTAGCTGCACACCTGAGGGTTACAAGGCGCTAGACGTAACCTCTCGCTTACTCTCATGTAGTTCC [230]”, for which the Kd (in data set [1] (setting [5]); with CD22beta (CD22beta-Rg) (setting [6])) was greater than 100 µM each time.

On to “CTACCTACGATCTGACTAGCCATTCACCATGGCCCCTTCCTACGTATGTTCTGCGGGTGGCTTACTCTCATGTAGTTCC [174]”, for which the equilibrium dissociation constant (Kd) (in data set [1] (setting [5]); with CD22beta (CD22beta-Rg) (setting [6])) was greater than 100 µM each time.

Sequence “GGGAAAAGCGAAUCAUACACAAGAGCCUAGGGAUGCAACGGCGAAUGGAUAGCGAUGUCGUGGACAGCCAGGUGCUCCGCCAGAGACCAACCGAGAA [6.16 (WGA)]” had a Kd in data set [1] (setting [7]) greater than 20 µM.

Turning to “GGGAGGACGAUGCGGAAACCUUGAUGUGUGAUAGAGCAUCCCCCAGGCGACGUACCAGACGACUCGCCCGA [F14.9]”, the Kd (in data set [2]; with CD22beta (CD22beta-Rg) (setting [8])) was greater than 20 µM each time.

On to “GGGAAAAGCGAAUCAUACACAAGACCGGGGAUGGUGAGUCGGGCAGUGUGACCGAACUGGUGCCCGCUGAGAGCUCCGCCAGAGACCAACCGAGAA [6.6]”, for which the dissociation constant Kd in data set [1] (setting [7]) is greater than 20 µM.

In the case of “CTACCTACGATCTGACTAGCCATCAAGGACTTTGCCCGAAACCCTAGGTTCACGTGTGGGGCTTACTCTCATGTAGTTCC [181]”, the Kd (in data set [1] (setting [5]); with CD22beta (CD22beta-Rg) (setting [6])) was greater than 100 µM in each case.

“CTACCTACGATCTGACTAGCCAAGGTAACCAGTACAAGGTGCTAAACGTAATGGCTTCGGCTTACTCTCATGTAGTTCC [201]”: the Kd (in data set [1] (setting [5]); with CD22beta (CD22beta-Rg) (setting [6])) was greater than 100 µM each time.

“GGGAAAAGCGAAUCAUACACAAGACCCAACGUGUCAUCGCGAGCUGGCGGAGAGUUCAUGAGGGUUACGGGUGCUCCGCCAGAGACCAACCGAGAA [11.33]” came in with a dissociation constant Kd in data set [1] (setting [7]) greater than 20 µM.

As to “GGGAAAAGCGAAUCAUACACAAGAGUGGACUGGAAUCUUCGAGGACAGGAACGUUCCUAGGGAUGCAACGGACGCUCCGCCAGAGACCAACCGAGAA [6.34]”, the equilibrium dissociation constant (Kd) in data set [1] (setting [7]) is greater than 20 µM.

Consider “GGGAGGACGAUGCGGUAACAACAAUCAAGGCGGGUUCACCGCCCCAGUAUGAGUGCAGACGACUCGCCCGA [F14.20]”, for which the equilibrium dissociation constant (Kd) with CD22beta (CD22beta-Rg) (setting [8]) was greater than 20 µM.

For the sequence “CTACCTACGATCTGACTAGCGCAACGTGGCCCCGTTTAGCTCATTTGACCGTTCCATCCGGCTTACTCTCATGTAGTTCC [122]”, the Kd (in data set [1] (setting [5]); in the data set with CD22beta (CD22beta-Rg) (setting [6])) was greater than 100 µM throughout.

Take “GGGAAAAGCGAAUCAUACACAAGAGUCCGCCCCCAGGGAUGCAACGGGGUGGCUCUAAAAGGCUUGGCUAAGCUCCGCCAGAGACCAACCGAGAA [11.13]”: in data set [1] (setting [7]), the Kd was greater than 20 µM.

Consider “GGGAGGACGAUGCGGCGGCCCUUAUCGGAGGUCUGCGCCACUAAUUACAUCCACCAGACGACUCGCCCGA [F13.59]”, for which the Kd is greater than 20000 nM in data set [3] (2'-NH2 all C and U, <5% bound at highest concentration, 4 C and room temp); greater than 20 µM in data set [2]; greater than 20 µM in the data set with CD22beta (CD22beta-Rg) (setting [8]).

Consider “CTACCTACGATCTGACTAGCGGAACACGTGAGGTTTACAAGGCACTCGACGTAAACACTTGCTTACTCTCATGTAGTTCC [204]”, for which the Kd (in data set [1] (setting [5]); in the data set with CD22beta (CD22beta-Rg) (setting [6])) was greater than 100 µM in each case.

“GGGAGGACGAUGCGGAAAGUUAUGAGUCCGUAUAUCAAGGUCGACAUGUGUGAAUCAGACGACUCGCCCGA [F13.48]”: the Kd (in data set [2]; with CD22beta (CD22beta-Rg) (setting [8])) was greater than 20 µM in each case.

“GGGAAAAGCGAAUCAUACACAAGAACACUAACCAGGUCUCUGAACGCGGGACGGAGGUGUGGGCGAGGUGGAAGCUCCGCCAGAGACCAACCGAGAA [6.11]” yielded a Kd in data set [1] (setting [7]) greater than 20 µM.

With “GGGAGGACGAUGCGGCGCGUAUGUGUGAAAGCGUGUGCACGGAGGCGUCUACAAUCAGACGACUCGCCCGA [F13.32]”, the Kd (in data set [2]; in the data set with CD22beta (CD22beta-Rg) (setting [8])) was greater than 20 µM each time.

“GGGAGGACGAUGCGGUCCCAGAGUCCCGUGAUGCGAAGAAUCCAUUAGUACCAGACAGACGACUCGCCCGA [F14.53]”: the Kd in the data set with CD22beta (CD22beta-Rg) (setting [8]) was greater than 20 µM.

Take “GGGAAAAGCGAAUCAUACACAAGAGAGAAUGAGCAUGGCCGGGGCAGGAAGUGGGUGGCAACGGAGGCCAGCUCCGCCAGAGACCAACCGAGAA [11.23]”: the Kd in data set [1] (setting [7]) was greater than 20 µM.

Turning to “GGGAAAAGCGAAUCAUACACAAGACGGCUGUGUGGUGUUGGAGCGUCAUAGUAGGAGUCGUCACGAACCAAGGCGCUCCGCCAGAGACCAACCGAGAA [11.24]”, the Kd in data set [4] is greater than 20 µM.

Regarding “CTACCTACGATCTGACTAGCAGCGTTGTACGGGGTTACACACAACGATTTAGATGCTCTGCTTACTCTCATGTAGTTCC [206]”, the Kd (in data set [1] (setting [5]); with CD22beta (CD22beta-Rg) (setting [6])) was greater than 100 µM each time.

For the sequence “GGGAAAAGCGAAUCAUACACAAGAGUGUACCAAUGGAGGCAAUGCUGCGGGAAUGGAGGCCUAGGGAUGCAACGCUCCGCCAGAGACCAACCGAGAA [6.35]”, in data set [1] (setting [7]), the Kd was greater than 20 µM.

Regarding “GGGAGGACGAUGCGGGAUGUAAAUGACAAAUGAACCUCGAAAGAUUGCACACUCCAGACGACUCGCCCGA [F13.42]”, the Kd with CD22beta (CD22beta-Rg) (setting [8]) is greater than 20 µM.

As to “GGGAGGACGAUGCGGUUGAGAUGUGUGAGUACAAGCUCAAAAUCCCGUUGGAGGCAGACGACUCGCCCGA [F14.21]”, the Kd with CD22beta (CD22beta-Rg) (setting [8]) was greater than 20 µM.

In the case of “GGGAAAAGCGAAUCAUACACAAGACAAACCUGCAGUCGCGCGGUGAAACCUAGGGUUGCAACGGUACAUCGCUGUGCUCCGCCAGAGACCAACCGAGAA [6.20]”, the Kd in data set [1] (2'-NH2 all C and U, <5% bound at 1 uM WGA, printed as 6.2, SEQ 27, protein details: free lectin, E Y Laboratories, label: 32P) is greater than 20 µM.

In the case of “GGGAGGACGAUGCGGUGUCUCUCCUGACUUUUAUUCUUAGUUCGAGCUGUCCUGGCAGACGACUCGCCCGA [F13.55]”, the Kd with CD22beta (CD22beta-Rg) (setting [8]) is greater than 20 µM.

Take “CTACCTACGATCTGACTAGCCACGACAGAGAACAAGGCGTTAGACGTTATCCGACCACGGCTTACTCTCATGTAGTTCC [233]”: the Kd in data set [1] (setting [5]) was greater than 100 µM; in data set [3] (room temp, 380 pM at 37 C, single-stranded DNA), 110 nM; with CD22beta (CD22beta-Rg) (setting [6]), greater than 100 µM.

Consider “CTACCTACGATCTGACTAGCTACACAAGGTGCTAAACGTAGAGCCAGATCGGATCTGAGCGCTTACTCTCATGTAGTTCC [111]”, for which the Kd (in data set [1] (setting [5]); with CD22beta (CD22beta-Rg) (setting [6])) was greater than 100 µM in each case.

Consider “GGGAGGACGAUGCGGUAACAUAAAGUAGCGCGUCUGUGAGAGGAAGUGCCUGGAUCAGACGACUCGCCCGA [F13.57]”, for which the Kd with CD22beta (CD22beta-Rg) (setting [8]) was greater than 20 µM.
